Experimental findings from US20210086176A1, “Analyte Detection method” (The Board of Trustees of the Leland Stanford Junior …, priority 2017, published 2021) are described below.

The series in a line: ondansetron in DBS versus plasma, healthy adults and newborn babies. It is filed as in vivo, human.

With `Cc1nccn1CC1CCc2c(c3ccccc3n2C)C1=O` (centres unmarked) [ondansetron], the “slope of trend line, DBS versus plasma ondansetron concentration” value (babies) is listed as 1.47 and the “slope of trend line, DBS versus plasma ondansetron concentration” value (healthy adults) is listed as 0.71.
